Where a name gives a salt, the structure may show the parent alone. The list shows a part of the results. This data set is noisy: repeats of one test often differ as much as different tests do.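 The human kidney-derived cells carry a stably integrated construct of eight TEAD-binding elements driving luciferase, read by luminescence in a drug-repurposing library screen. A compound counts as a hit when its signal is more than five robust Z scores above the plate mean.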
Tested on: HEK293A TEAD-LUC reporter
Assay: TEAD-luciferase reporter activity (YAP activation), robust Z score vs plate; higher = stronger YAP/TEAD activation
Details: 24 h

Row | Compound | TEAD-luciferase reporter activity (compound concentration: 200 nM) | TEAD-luciferase reporter activity (compound concentration: 2 uM) | TEAD-luciferase reporter activity (compound concentration: 10 uM)
1 | CCC1=C[C@H]2CN(CCc3c([nH]c4ccccc34)[C@@](C(=O)OC)(c3cc4c(cc3OC)N(C)[C@H]3[C@@](O)(C(=O)OC)[C@H](OC(C)=O)[C@]5(CC)C=CCN6CC[C@]43[C@@H]65)C2)C1 [anhydrovinblastine] | inactive: 1.55 | inactive: 1.85 | active: 13.6
2 | NC[C@@H](F)C[PH](=O)O [Lesogaberan] | inactive: -0.303 | inactive: -0.345 | inactive: -0.468
3 | CCOC(=O)c1cncn1C(C)c1ccccc1 (stereo not given) [Etomidate] | inactive: 2.21 | – | inactive: -1.77
4 | CCOC(=O)c1cncn1C(C)c1ccccc1 (stereo not given) [etomidate] | – | inactive: -0.207 | –
5 | CC(C)NCC(O)c1ccccc1Cl (stereo not given) [Clorprenaline hydrochloride] | inactive: -0.825 | – | inactive: -0.51
6 | CC(C)NCC(O)c1ccccc1Cl (stereo not given) | – | inactive: -1.3 | –
7 | C[C@H]1CNCCc2ccc(Cl)cc21 [Lorcaserin hydrochloride] | inactive: -1.42 | inactive: -1.99 | inactive: -0.717
8 | COc1ccc2c(c1)[C@]13CCCC[C@@H]1[C@H](C2)N(C)CC3 [Dextromethorphan HBr] | inactive: -0.637 | inactive: 2.18 | inactive: 2.65
9 | C1=C(c2ccccc2)CCN(CC2CCC=C(c3ccccc3)C2)C1 (stereo not given) | inactive: -1.26 | inactive: 0.862 | inactive: 1.54
10 | CCC(C)C(NC(=O)C(CCCNC(=N)N)NC(=O)C(CCCNC(=N)N)NC(=O)C(CC(C)C)NC(=O)C(Cc1ccccc1)NC(=O)CNC(=O)CNC(=O)C(N)Cc1ccc(O)cc1)C(=O)NC(CCCNC(=N)N)C(=O)N1CCCC1C(=O)NC(CCCCN)C(=O)NC(CC(C)C)C(=O)NC(CCCCN)C(=O)O (stereo not given) [Dynorphin A1-13] | inactive: -1.17 | inactive: 0.136 | inactive: 0.0213
11 | FC(F)OC(F)(F)C(F)Cl (stereo not given) [enflurane] | inactive: 1.33 | inactive: -0.144 | inactive: -0.24
12 | COc1ccc2[nH]cc(C3=CCNCC3)c2c1 | inactive: 0.579 | inactive: -1.37 | inactive: -0.465
13 | CC(=O)OC1CN2CCC1CC2 (stereo not given) | inactive: -0.979 | inactive: -0.296 | inactive: 1.93
14 | Clc1ccccc1C1=NCc2nncn2-c2sc(Br)cc21 | inactive: -2.81 | inactive: -1.68 | inactive: 2.98
15 | Cc1ccc(NC2=NCCN2)c(Cl)c1 [tolonidine] | inactive: -1.32 | inactive: 0.554 | inactive: -0.358
16 | CC(=O)Oc1cc(O[C@H](C)CCCc2ccccc2)cc2c1C1CC(O)CCC1C(C)N2 (stereo not given in full) [levonantradol] | inactive: 0.693 | inactive: 0.216 | inactive: 1.21
17 | CC(C)CCN1CCC2(CC1)C(=O)Nc1ccccc12 | inactive: 0.114 | – | inactive: 4.42
18 | CCC(=O)c1ccc(N)cc1 | inactive: -0.331 | inactive: -0.34 | inactive: -0.22
19 | CN1CC[C@@]2(C)c3cc(O)ccc3N(C)[C@@H]12 [Eseroline] | inactive: 0.0497 | inactive: -1.41 | inactive: 1.16
20 | CCC(C)c1cccc(C(C)CC)c1O (stereo not given) | inactive: -0.467 | inactive: 0.821 | inactive: -0.383
21 | Cc1c(NC2=NCCN2)ccc2nccnc12 | inactive: 0.567 | inactive: 1.41 | inactive: -0.0718
22 | CC[C@H]1[C@@H]2CC3[C@@H]4N(C)c5ccccc5[C@]45C[C@@H](C2C5O)N3[C@@H]1O (stereo not given in full) [Rauwolfine] | inactive: -0.442 | inactive: 0.363 | inactive: -1.72
23 | c1ccc(C2(c3ccccc3)CC2C2=NCCN2)cc1 (stereo not given) [cibenzoline] | – | inactive: 0.647 | –
24 | c1ccc(C2(c3ccccc3)CC2C2=NCCN2)cc1 (stereo not given) [Cibenzoline succinate] | inactive: -1.68 | – | inactive: 1.32
25 | Cc1cccc(C)c1Cc1c[nH]cn1 | inactive: -1.33 | – | inactive: -0.269
26 | CCCN1CCC[C@H](c2cccc(C#N)c2)C1 | inactive: 1.5 | inactive: -0.263 | inactive: 1.55
27 | CCCCCCCCCC[N+](C)(C)CCCCCCCCCC | inactive: -0.997 | inactive: 1.01 | inactive: -1.25

Shown as a markdown table: part of the list above

| Row | Compound | TEAD-luciferase reporter activity (compound concentration: 200 nM) | TEAD-luciferase reporter activity (compound concentration: 2 uM) | TEAD-luciferase reporter activity (compound concentration: 10 uM) |
| --- | --- | --- | --- | --- |
| 18 | CCC(=O)c1ccc(N)cc1 | inactive: -0.331 | inactive: -0.34 | inactive: -0.22 |
| 19 | CN1CC[C@@]2(C)c3cc(O)ccc3N(C)[C@@H]12 [Eseroline] | inactive: 0.0497 | inactive: -1.41 | inactive: 1.16 |
| 20 | CCC(C)c1cccc(C(C)CC)c1O (stereo not given) | inactive: -0.467 | inactive: 0.821 | inactive: -0.383 |
| 21 | Cc1c(NC2=NCCN2)ccc2nccnc12 | inactive: 0.567 | inactive: 1.41 | inactive: -0.0718 |
| 22 | CC[C@H]1[C@@H]2CC3[C@@H]4N(C)c5ccccc5[C@]45C[C@@H](C2C5O)N3[C@@H]1O (stereo not given in full) [Rauwolfine] | inactive: -0.442 | inactive: 0.363 | inactive: -1.72 |
| 23 | c1ccc(C2(c3ccccc3)CC2C2=NCCN2)cc1 (stereo not given) [cibenzoline] | – | inactive: 0.647 | – |
| 24 | c1ccc(C2(c3ccccc3)CC2C2=NCCN2)cc1 (stereo not given) [Cibenzoline succinate] | inactive: -1.68 | – | inactive: 1.32 |
| 25 | Cc1cccc(C)c1Cc1c[nH]cn1 | inactive: -1.33 | – | inactive: -0.269 |

From the supplement of paper PMC10735217
